Values joined by “and” are separate entries in the source; they are usually repeats but may differ in a detail not shown here. Equal values may be shown once. The list shows a part of the results. These are further read-outs of the screen, such as a control signal, another cell line or another target. No call is given for them. For some assays here: Compounds called inactive in the main read-out are mostly missing here. Potencies come from curve fits of mixed quality, noted in brackets.
Assays:
[1] = Validation of Assay for Modulators of Lamin A Splicing (AID 1459); conditions: Lamin A splicing dual RFP/GFP fluorescence reporter, ratio
Method in brief: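 S3 HeLa stably expressing lamin A-EGFP splicing minigene and DsRed2, 600 cells/well in Opti-MEM with 2% FBS, treated 48 h at 37C; laser-scanning cytometry gives GFP/RFP total intensity ratio; ancitabine positive control, 0.5% DMSO vehicle.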

Amino acid sequences for entries named in this document (tags omitted). A change or cut given only in a name is not applied to a line headed by its entry.
UniProt P21964: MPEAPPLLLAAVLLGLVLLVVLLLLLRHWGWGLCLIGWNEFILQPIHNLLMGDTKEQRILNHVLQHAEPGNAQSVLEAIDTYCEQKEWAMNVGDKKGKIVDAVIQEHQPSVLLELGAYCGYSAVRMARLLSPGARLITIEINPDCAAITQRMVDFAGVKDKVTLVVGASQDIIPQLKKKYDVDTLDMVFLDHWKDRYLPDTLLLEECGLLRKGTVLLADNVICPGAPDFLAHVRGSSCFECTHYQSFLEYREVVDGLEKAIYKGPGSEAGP
UniProt P50135: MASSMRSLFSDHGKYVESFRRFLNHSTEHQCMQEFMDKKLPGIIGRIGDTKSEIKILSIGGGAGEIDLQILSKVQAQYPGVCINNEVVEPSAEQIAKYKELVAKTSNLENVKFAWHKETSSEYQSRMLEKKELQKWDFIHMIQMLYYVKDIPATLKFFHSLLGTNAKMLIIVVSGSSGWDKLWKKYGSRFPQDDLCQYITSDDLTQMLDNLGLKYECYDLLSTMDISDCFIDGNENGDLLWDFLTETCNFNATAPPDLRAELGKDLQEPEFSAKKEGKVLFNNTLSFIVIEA

[2] = qHTS Assay for Lipid Storage Modulators (AID 1519); conditions: Drosophila S3 cells, BODIPY lipid droplet/cell ratio, laser cytometry, cells loaded with oleic acid
Method in brief: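 Cells seeded at 5,000 per well were treated with compounds over a concentration series and loaded with oleic acid (400 uM, as added). Lipid droplet fluorescence (488 nm excitation, 500-530 nm channel) was read by laser-scanning cytometry and normalized to 20 uM Triacsin C.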

[3] = qHTS Assay for Modulators of Human Peripheral Myelin Protein 22 (PMP22) Expression/Activity (AID 1967); conditions: Cell-based PMP22 reporter, dual-color luciferase ratio
Method in brief: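 Mouse MSC80 Schwann cells carrying Pmp22 promoter–green click beetle luciferase plus EF-alpha–red luciferase control, dosed 24 h at 37 °C. Dual-filter luminescence, overlap-corrected; %Activity from green/red ratio normalised to untreated cells, concentration-response curves fitted.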

[4] = qHTS Validation Assay to Find Inhibitors of Chronic Active B-Cell Receptor Signaling (AID 485345); conditions: ABC-DLBCL cells, chronic BCR signaling reporter
Method in brief: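 TMD8 ABC-DLBCL cells with dox-inducible green luciferase–IκBα fusion and red native luciferase; compounds 46 uM–3 nM, 4 h at 37C with doxycycline in 0.5% FBS IMDM. Green/red ratio normalized to basal and 10 uM MG-132.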

[5] = molecular target: Catechol O-methyltransferase (Homo sapiens) (UniProt P21964); assay: Confirmatory Screen for Target Class Profiling of Small Molecule Inhibitors of Methyltransferases (AID 1745852); conditions: MTase-Glo luminescence, SAH detection, recombinant enzyme; measured here: COMT inhibition potency
[6] = qHTS Assay for Inhibitors of PDE-IV (AID 607); conditions: HEK293 ACTOne CNG channel cells, membrane potential fluorescence; measured here: parental cell counter-screen
Method in brief: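 Cell-based read-out of cAMP via a modified cyclic nucleotide-gated channel and membrane potential dye (535/590 nm) in HEK293 cells expressing PDE4 endogenously. Compounds tested up to 22.9 uM final; 100 uM RO 20-1724 reference.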

[7] = Nrf2 qHTS screen for inhibitors: Validation (AID 493153); conditions: A549 ARE-Fluc reporter, 18-24 h; AC50: CellTiter-Fluor fluorescence read, measured here: cytotoxicity CellTiter-Fluor AC50; viability change: measured here: cytotoxicity max response
Method in brief: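 Dose-response validation uses reporter A549 cells with firefly luciferase under an antioxidant response element. Compounds stay on cells 18-24 h at 37°C, and luminescence indicates Nrf2-driven transcription.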

[8] = A High-Content qHTS Against Drug Library for the Identification of Small Molecules that Inhibit DYT1 Early Onset Primary Dystonia-Associated Cell Pathology (AID 1645839); conditions: HEK293 Flp-In EGFP-delE TorsinA, punctate imaging, 48 h; measured here: cell count cytotoxicity
Method in brief: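 Readout: %pathology, the punctate EGFP-TorsinA distribution from imaging, as the primary channel and cell count as the toxicity counterscreen. HEK293 Flp-In cells expressing delE TorsinA were induced with tetracycline and treated with compound for 48 h.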

[9] = qHTS assay for small molecule antagonists of peroxisome proliferator-activated receptor gamma signaling (AID 588537); conditions: HEK293 PPARg-UAS-bla, beta-lactamase ratio, antagonist mode; measured here: W460 blue channel
Method in brief: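 PPAR-gamma-UAS-bla HEK293 cells (3000/well, 1% charcoal/dextran-stripped FBS) were preincubated 6-6.5 h at 37 C, given titrated compounds, then stimulated with 50 nM rosiglitazone for 16 h. Beta-lactamase activity was read with CCF4 dye; IC50 came from Hill fits.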

[10] = qHTS Validation Assay for Iinhibitors of HIV-1 Budding by Blocking the Interaction of PTAP/TSG101 (AID 485342); conditions: TSG101-PTAP binding, fluorescence polarization, 4-point titration; measured here: FITC channel readout
Method in brief: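 Tsg101 binding domain (10 uM) with FITC-labeled PTAP peptide (50 nM) in HEPES pH 7.5 buffer, 20 min at r.t. with compounds. Binding measured by fluorescence polarization.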

[11] = molecular target: Histamine N-methyltransferase (Homo sapiens) (UniProt P50135); assay: Confirmatory Screen for Target Class Profiling of Small Molecule Inhibitors of Methyltransferases (AID 1745852); conditions: MTase-Glo luminescence, SAH detection, recombinant enzyme; measured here: HNMT inhibition potency
[12] = qHTS drug screen for cell cycle checkpoint inhibitors in PARPi-resistant BRCA-mutant ovarian cancer cell lines. (AID 1963452); conditions: PEO1/OlaR viability, CellTiter-Glo luminescence, 96 h
Method in brief: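 PEO1, PEO4 and PEO1/OlaR ovarian cancer cells, 600 per well, exposed 96 h at 37C to a dilution series. Viability read by CellTiter-Glo luminescence, normalized to DMSO and empty wells; activity summarized as Z-AUC.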

[13] = measured here: cell count channel max response
[14] = measured here: cell number channel AC50
[15] = measured here: lipid (BODIPY) channel AC50
[16] = measured here: lipid channel max response
[17] = measured here: red reporter channel AC50, EF-alpha promoter control reporter in MSC80 mouse Schwann cells
[18] = measured here: green reporter channel AC50, mouse Pmp22 promoter in mouse Schwann cells
[19] = measured here: CBR control luciferase (viability counter)
[20] = measured here: CBG/CBR ratio read-out

Question: For `NC(N)=N[C@@H](CCC(=O)O)C(=O)O`, which AC50 ([1]; measured here: RFP channel) is on record?
Answer: The AC50 was 5.01 µM [falling, single point].

Question: And the max response [2, 13]?
Answer: Its max response is 49.4%.

Question: What about the AC50 [2, 14] of the same compound?
Answer: Its AC50 is 39.8 µM [rising, single point].

Question: And the AC50 [2, 15]?
Answer: The AC50 was 39.8 µM [rising, single point].

Question: And the max response [2, 16]?
Answer: Its max response is 48.8%.

Question: And the AC50 [3, 17]?
Answer: Its AC50 is 37.9 µM [falling, single point].

Question: With `Nc1ccn([C@@H]2O[C@H](CO)[C@@H](O)[C@@H]2O)c(=O)n1` as the compound, how does the AC50 ([1]; measured here: GFP channel) read?
Answer: Its AC50 is 0.0631 µM [falling, full curve].

Question: And the max response [2, 13]?
Answer: Its max response is 63.1%.

Question: And the max response [2, 16]?
Answer: Its max response is 63%.

Question: What about the AC50 [3, 18] of the same compound?
Answer: The AC50 was 95.3 µM [falling, single point].

Question: What about the AC50 [3, 17] of the same compound?
Answer: Its AC50 is 10.7 µM [falling, full curve].

Question: With `Oc1cc2c(cc1O)CN(C(=S)NCCc1ccc(Cl)cc1)CCC2` as the compound, how does the AC50 ([1]; measured here: RFP channel) read?
Answer: The AC50 was 7.08 µM [falling, partial curve, poor fit].

Question: And the max response [2, 13]?
Answer: Its max response is 68% and 59.7%.

Question: What about the AC50 [2, 14] of the same compound?
Answer: Its AC50 is 14.1 µM [rising, partial curve, poor fit] and 35.5 µM [rising, single point].

Question: And the AC50 [2, 15]?
Answer: The AC50 was 12.6 µM [rising, partial curve, poor fit] and 35.5 µM [rising, partial curve, poor fit].

Question: What about the max response [2, 16] of the same compound?
Answer: The max response was 82.2% and 60.4%.

Question: And the AC50 [3, 18]?
Answer: Its AC50 is 84.9 µM [falling, single point].

Question: What about the AC50 [4, 19] of the same compound?
Answer: Its AC50 is 11.6 µM [falling, partial curve].

Question: What about the IC50 [5] of the same compound?
Answer: Its IC50 is 2.43 µM [rising, full curve].

Question: Which results are given for `O=C(O)c1cccnc1Nc1cccc(C(F)(F)F)c1`?
Answer: AC50 [6]: 0.00501 µM [rising, full curve, poor fit]; AC50 ([1]; measured here: RFP channel): 14.1 µM [falling, partial curve]; max response [2, 13]: 22%; AC50 [2, 15]: 39.8 µM [rising, single point]; max response [2, 16]: 45.1%; AC50 [3, 18]: 0.301 µM [rising, full curve]; AC50 [3, 17]: 37.9 µM [falling, partial curve, poor fit]; AC50 [4, 20]: 16.4 µM [falling, partial curve]; AC50 [4, 19]: 8.2 µM [falling, partial curve]; viability change [7]: -6.38%; AC50 [8]: 14.1 µM [falling, single point]

Question: For `CN(C)CCCN1c2ccccc2Sc2ccc(Cl)cc21`, which AC50 ([1]; measured here: RFP channel) is on record?
Answer: Its AC50 is 35.5 µM [falling, single point].

Question: And the max response [2, 13]?
Answer: Its max response is -45%.

Question: And the AC50 [2, 14]?
Answer: The AC50 was 39.8 µM [falling, single point].

Question: What about the max response [2, 16] of the same compound?
Answer: The max response was -45.8%.

Question: And the AC50 [3, 18]?
Answer: The AC50 was 42.6 µM [falling, full curve].

Question: What about the AC50 [3, 17] of the same compound?
Answer: The AC50 was 42.6 µM [falling, full curve].

Question: And the AC50 [4, 20]?
Answer: Its AC50 is 25.9 µM [falling, single point].

Question: And the AC50 [4, 19]?
Answer: The AC50 was 10.3 µM [falling, partial curve].

Question: And the AC50 [9]?
Answer: The AC50 was 0.00112 µM [falling, full curve, poor fit].

Question: What about the AC50 [8] of the same compound?
Answer: Its AC50 is 3.98 µM [falling, full curve].

Question: For `CCN(CC)CCCC(C)Nc1c2ccc(Cl)cc2nc2ccc(OC)cc12` (configuration not stated), which AC50 ([1]; measured here: RFP channel) is on record?
Answer: Its AC50 is 25.1 µM [falling, single point].

Question: And the AC50 [3, 18]?
Answer: The AC50 was 33.8 µM [falling, full curve].

Question: And the AC50 [3, 17]?
Answer: Its AC50 is 15.1 µM [falling, full curve].

Question: What about the AC50 [10] of the same compound?
Answer: Its AC50 is 50.1 µM [falling, partial curve].

Question: What about the AC50 [4, 19] of the same compound?
Answer: The AC50 was 6.51 µM [falling, partial curve].

Question: What about the AC50 [7] of the same compound?
Answer: Its AC50 is 16.4 µM [falling, single point].

Question: What about the viability change [7] of the same compound?
Answer: Its viability change is -45.9%.

Question: What about the AC50 [8] of the same compound?
Answer: The AC50 was 28.2 µM [falling, single point].

Question: And the IC50 [11]?
Answer: The IC50 was 17.2 µM [falling, partial curve] and 5.27 µM [falling, partial curve].

Question: What about the AC50 ([12]; measured here: PEO1 parental viability) of the same compound?
Answer: Its AC50 is 6.92 µM [falling, partial curve].

Question: What about the AC50 ([12]; measured here: PEO4 viability) of the same compound?
Answer: Its AC50 is 6.16 µM [falling, partial curve].

Question: Which AC50 ([1]; measured here: GFP channel) does the source give for `Cc1cc(N)c2ccccc2[n+]1CCCCCCCCCC[n+]1c(C)cc(N)c2ccccc21` here?
Answer: The AC50 was 3.16 µM [falling, partial curve, poor fit].

Question: And the max response [2, 13]?
Answer: The max response was -24.3% and 38.2% and -69.5%.

Question: What about the AC50 [2, 14] of the same compound?
Answer: The AC50 was 0.0282 µM [falling, full curve, poor fit].

Question: And the AC50 [2, 15]?
Answer: The AC50 was 15.8 µM [falling, single point] and 25.1 nM [falling, full curve, poor fit].

Question: And the max response [2, 16]?
Answer: The max response was -66.3% and -80.9% and -79.5%.

Question: And the AC50 [3, 18]?
Answer: Its AC50 is 37.9 µM [falling, full curve].

Question: And the AC50 [3, 17]?
Answer: Its AC50 is 33.8 µM [falling, full curve].

Question: And the viability change [7]?
Answer: Its viability change is -11.9%.

Question: And the IC50 [11]?
Answer: Its IC50 is 3.43 µM [falling, full curve].

Question: With `Nc1ncnc2c1nc(Br)n2C1O[C@H]2COP(=O)(O)O[C@@H]2C1O` (some centres not stated) as the compound, how does the AC50 ([1]; measured here: GFP channel) read?
Answer: The AC50 was 4.47 µM [rising, partial curve].

Question: And the AC50 [3, 17]?
Answer: Its AC50 is 42.6 µM [falling, partial curve, poor fit].

Reference: PubChem BioAssay (NCATS)
